The target in this assay is GST-N1ICD/N (GST-tagged N-terminal fragment of the Notch1 ICD) (mouse). Nature of the assay: pull-down; purified GST-N1ICD/N on glutathione-Sepharose 4B incubated overnight with purified GIT1-His; washed with buffer A + 50 mM NaCl; both purified.

Results are given in words; binding and its absence hold for the method and conditions named. Binding can be weak; no strength is given. Sequences can lack the tags named with a protein.

B1: GIT1-His (recombinant His-tagged GIT1) (protein, UniProt Q68FF6 1-770)
chain: MSRKGPRAEVCADCSAPDPGWASISRGVLVCDECCSVHRSLGRHISIVKHLRHSAWPPTLLQMVHTLASNGANSIWEHSLLDPAQVQSGRRKANPQDKVHPIKSEFIRAKYQMLAFVHKLPCRDDDGVTAKDLSKQLHSSVRTGNLETCLRLLSLGAQANFFHPEKGTTPLHVAAKAGQTLQAELLVVYGADPGSPDVNGRTPIDYARQAGHHELAERLVECQYELTDRLAFYLCGRKPDHKNGHYIIPQMADRSRQKCMSQSLDLSELAKAAKKKLQALSNRLFEELAMDVYDEVDRRENDAVWLATQNHSTLVTERSAVPFLPVNPEYSATRNQGRQKLARFNAREFATLIIDILSEAKRRQQGKSLSSPTDNLELSARSQSELDDQHDYDSVASDEDTDQEPLPSAGATRNNRARSMDSSDLSDGAVTLQEYLELKKALATSEAKVQQLMKVNSSLSDELRRLQREIHKLQAENLQLRQPPGPVPPPSLPSERAEHTLMGPGGSTHRRDRQAFSMYEPGSALKPFGGTPGDELATRLQPFHSTELEDDAIYSVHVPAGLYRIRKGVSASSVPFTPSSPLLSCSQEGSRHASKLSRHGSGADSDYENTQSGDPLLGLEGKRFLELSKEDELHPELESLDGDLDPGLPSTEDVILKTEQVTKNIQELLRAAQEFKHDSFVPCSEKIHLAVTEMASLFPKRPALEPVRSSLRLLNASAYRLQSECRKTVPPEPGAPVDFQLLTQQVIQCAYDIAKAAKQLVTITTREKKQ
In the case of B1, the binding entry is given as “binds”.

These data come from paper PMC8940956.
